The results in this text go back to article PMC7819943, “Rice protein-binding microarrays: a tool to detect cis-acting elements near promoter regions in rice”.

By UniProt entry, the sequences of proteins in these tests, tags left out.
UniProt Q0JBA9, entry or part of it: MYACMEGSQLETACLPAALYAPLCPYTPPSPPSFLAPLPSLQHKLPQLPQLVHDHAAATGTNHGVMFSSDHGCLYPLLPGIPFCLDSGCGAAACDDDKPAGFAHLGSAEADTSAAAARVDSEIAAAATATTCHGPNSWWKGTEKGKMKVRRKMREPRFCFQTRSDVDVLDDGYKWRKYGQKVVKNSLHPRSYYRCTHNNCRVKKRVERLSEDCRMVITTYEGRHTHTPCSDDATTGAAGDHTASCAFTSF

Some of the results follow.

The target in the experiment is OsWRKY34 (Oryza sativa, UniProt Q0JBA9 1-250). Briefly: protein-binding microarray (RPBM); PBS, 2% BSA, 51.3 ng/ul salmon testes DNA, 50 uM zinc acetate, 200 nM TF, 25 C, 1 h; high values mean tight binding. To be noted: protein: recombinant; tags: N-terminal polyhistidine and DsRed monomer fusion (pET32a); label: CyDye5-dUTP incorporated in the synthesized complementary strand; 3' TTTTT single-stranded linker to array surface; dsDNA, one strand shown. The method, boiled down: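 Ni–NTA purification followed expression in E. coli BL21-CodonPlus of transcription factors fused N-terminally to a polyhistidine tag and DsRed. At 200 nM in PBS with 2% BSA, salmon testes DNA and 50 µM zinc acetate, the protein was incubated for 1 h at 25 °C with a custom Agilent array that had been primer-extended with Cy5-dUTP and blocked with 2% BSA. After washing, the array was read on an Axon 4000B scanner. The binding signal is per-feature fluorescence intensity in arbitrary units.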
In the case of “ATCCCTTGCCAAAACTGCAATATCATATCTAGCTAAACTACGGAGTCACCTAGTGCAG”, the binding signal is 11000 fluorescence intensity (a.u.).

In the case of “GCCTCCACGTCATCCTTTTTCTCCAAACCGTTGGATCTAACGGAGTCACCTAGTGCAG”, the binding signal is 11400 fluorescence intensity (a.u.).

As to “GTAGCTTCGGCTTTGAGATTCGTGCAGGGGTGGGATCCTGCGGAGTCACCTAGTGCAG”, the binding signal was 8420 fluorescence intensity (a.u.).

With “GATCACTTGGTCTGACCCTTTTTTCGCTACTCCGTTAAGCCGGAGTCACCTAGTGCAG”, the binding signal is 10100 fluorescence intensity (a.u.).

“TAAGACGAATGGTCAAACATGTAAGAAAAAGTCAACGGTACGGAGTCACCTAGTGCAG”: the binding signal was 12900 fluorescence intensity (a.u.).

As to “AGCGTCGCGGTGGCTTTGTGGGAGGGGAGTAGTAGCGGTACGGAGTCACCTAGTGCAG”, the binding signal is 10000 fluorescence intensity (a.u.).

With “ATCTCCCGCGGTTTCGATTTGGGTTTATTTGGGCGGTGGGCGGAGTCACCTAGTGCAG”, the binding signal is 18800 fluorescence intensity (a.u.).

“CCGCCGATCCATCGCCGCCGCTGCCGCCGTTTTCTATTGTCGGAGTCACCTAGTGCAG”: the binding signal is 8670 fluorescence intensity (a.u.).

Take “GCACACTGGCACCCGATTTGTTGGTTTCTTACCCCTCCTACGGAGTCACCTAGTGCAG”: the binding signal is 9690 fluorescence intensity (a.u.).

On to “GAGTTTTTGCTGGAATTGGTTAAATCCTGAACTTATTTTTCGGAGTCACCTAGTGCAG”, for which the binding signal is 8180 fluorescence intensity (a.u.).

As for “AATCTTCAGTGGCTGGGCCACTTACATGTTGGCCTCACATCGGAGTCACCTAGTGCAG”, the binding signal is 10100 fluorescence intensity (a.u.).

As to “TGGCAAATGTCATTGTTTGTTGACTGTATTTTAATGGTATCGGAGTCACCTAGTGCAG”, the binding signal was 8250 fluorescence intensity (a.u.).

Turning to “TGAAGGTGCTGTGTTTTGAGTGCTTGGGATGAGCTGCGTGCGGAGTCACCTAGTGCAG”, the binding signal is 8480 fluorescence intensity (a.u.).

With “TGGTCGGCGATTCTAGGGTTAGGGTTAGGGTTTTTCTACTCGGAGTCACCTAGTGCAG”, the binding signal was 12200 fluorescence intensity (a.u.).

In the case of “AACCTGCATTGTTCTTTCCTTCTCAATTGTTGCAATTGTACGGAGTCACCTAGTGCAG”, the binding signal is 11400 fluorescence intensity (a.u.).

In the case of “GTTCATCTCTTCACTGTACGAATTTACTAGTTTTTTTCTTCGGAGTCACCTAGTGCAG”, the binding signal is 8730 fluorescence intensity (a.u.).

Turning to “GCCACCACCACCTCCCTCCACCACCATGCCGTCACCATCCCGGAGTCACCTAGTGCAG”, the binding signal is 8270 fluorescence intensity (a.u.).

With “CTCCAGCATTACCTGTCCCCACATGTCAGTGACCTCACCCCGGAGTCACCTAGTGCAG”, the binding signal is 8260 fluorescence intensity (a.u.).

On to “GACCTTTTTTCCTTTCGTCTGACTGACACATCAGTCAAAACGGAGTCACCTAGTGCAG”, for which the binding signal was 11200 fluorescence intensity (a.u.).

Regarding “CGTGCGTGATTGTATTGTATTCTATTTTTTTTAAAAAAAACGGAGTCACCTAGTGCAG”, the binding signal was 10100 fluorescence intensity (a.u.).

“CTTGTGGCTTCTAGTTCATTTTCTGGTTTCTACAACTACACGGAGTCACCTAGTGCAG”: the binding signal was 8240 fluorescence intensity (a.u.).

“GATAGGCTCAATCTCACAATCACTATATGCATATATAATACGGAGTCACCTAGTGCAG”: the binding signal is 9420 fluorescence intensity (a.u.).

Turning to “CCTCTCGGTTTCTTCACCCTTATCACCTCGTTTTCTTTCCCGGAGTCACCTAGTGCAG”, the binding signal is 10000 fluorescence intensity (a.u.).
